# These are yes or no findings as the source states them, for the method shown. For part of these data: In cells and extracts the contact can be indirect. Some binding calls cover weakened binding; strength is not graded here.
# Chains of the proteins cited; added tags and fusions are not shown.
# UniProt O84288: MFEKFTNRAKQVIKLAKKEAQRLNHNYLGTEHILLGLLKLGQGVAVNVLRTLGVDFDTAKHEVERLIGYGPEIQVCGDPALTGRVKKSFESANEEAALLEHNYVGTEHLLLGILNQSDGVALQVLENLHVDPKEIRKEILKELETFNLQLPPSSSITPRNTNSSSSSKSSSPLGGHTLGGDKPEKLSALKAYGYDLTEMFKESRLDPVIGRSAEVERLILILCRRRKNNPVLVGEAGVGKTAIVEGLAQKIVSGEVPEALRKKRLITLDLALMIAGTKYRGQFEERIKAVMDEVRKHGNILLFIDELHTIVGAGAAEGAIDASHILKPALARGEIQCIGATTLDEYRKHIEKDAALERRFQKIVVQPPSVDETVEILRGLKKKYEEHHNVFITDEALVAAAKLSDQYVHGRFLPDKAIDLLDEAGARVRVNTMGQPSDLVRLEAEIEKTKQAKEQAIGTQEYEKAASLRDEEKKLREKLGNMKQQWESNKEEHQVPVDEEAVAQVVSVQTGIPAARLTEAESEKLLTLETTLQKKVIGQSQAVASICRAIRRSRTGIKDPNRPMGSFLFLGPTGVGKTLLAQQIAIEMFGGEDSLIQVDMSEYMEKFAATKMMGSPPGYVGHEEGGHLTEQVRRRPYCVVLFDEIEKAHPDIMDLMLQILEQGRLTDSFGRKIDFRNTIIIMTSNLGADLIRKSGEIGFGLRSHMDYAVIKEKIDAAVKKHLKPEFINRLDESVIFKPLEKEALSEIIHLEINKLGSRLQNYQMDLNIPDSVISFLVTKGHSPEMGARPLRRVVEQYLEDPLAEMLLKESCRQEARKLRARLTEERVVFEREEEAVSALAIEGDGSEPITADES
# UniProt O84711: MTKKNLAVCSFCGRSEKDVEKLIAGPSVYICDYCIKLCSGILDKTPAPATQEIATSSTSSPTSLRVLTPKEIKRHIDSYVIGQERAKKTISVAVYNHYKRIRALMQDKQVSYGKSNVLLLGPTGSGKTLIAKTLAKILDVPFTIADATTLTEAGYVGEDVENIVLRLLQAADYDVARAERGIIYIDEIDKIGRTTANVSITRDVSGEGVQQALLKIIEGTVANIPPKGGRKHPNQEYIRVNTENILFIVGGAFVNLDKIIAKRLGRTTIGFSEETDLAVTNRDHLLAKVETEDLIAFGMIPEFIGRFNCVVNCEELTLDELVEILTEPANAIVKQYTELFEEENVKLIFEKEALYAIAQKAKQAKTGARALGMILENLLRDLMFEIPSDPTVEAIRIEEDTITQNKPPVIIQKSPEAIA
# How the values were obtained:
# [1] = molecular target: ClpC_6×His, wild type, ectopically expressed in C. trachomatis L2 (C. trachomatis L2 (Bu 434)) (UniProt O84288); experiment: cross-linking; HeLa cells infected with C. trachomatis L2 (wild type or transformants induced at 16 hpi) treated with 0.25 mM DSS in HBSS pH 7.6 on ice at 4°C for at least 1 h; whole-cell lysates on 8% SDS-PAGE, immunoblot with anti-ClpC (endogenous) or anti-6×His (ectopic)
# [2] = molecular target: C. trachomatis ClpC, wild type, BACTH fusion (T25 or T18) (C. trachomatis L2 (Bu 434)) (UniProt O84288); experiment: two-hybrid; bacterial adenylate cyclase two-hybrid (BACTH): T25 and T18 fusions from pKT25 and pUT18C cotransformed into Δcya E. coli DHT1; M63 minimal medium plates with maltose, 0.5 mM IPTG and X-Gal; β-galactosidase assay in Miller units
Substance,binding [1],binding [2]
"ClpC_6×His, wild type, ectopically expressed in C. trachomatis L2 (from UniProt O84288 1-854)",binds,
"C. trachomatis ClpX, BACTH fusion (from UniProt O84711 1-419)",,no binding
"C. trachomatis ClpC, wild type, BACTH fusion (T25 or T18) (from UniProt O84288 1-854)",,binds
